Binding data for two molecules are collected here from PMC3841123.

The chains behind the UniProt entries cited, without tags or fusion partners. Where a name states a change or a piece, a line headed by the entry shows the natural chain unless it says otherwise.
UniProt Q99418: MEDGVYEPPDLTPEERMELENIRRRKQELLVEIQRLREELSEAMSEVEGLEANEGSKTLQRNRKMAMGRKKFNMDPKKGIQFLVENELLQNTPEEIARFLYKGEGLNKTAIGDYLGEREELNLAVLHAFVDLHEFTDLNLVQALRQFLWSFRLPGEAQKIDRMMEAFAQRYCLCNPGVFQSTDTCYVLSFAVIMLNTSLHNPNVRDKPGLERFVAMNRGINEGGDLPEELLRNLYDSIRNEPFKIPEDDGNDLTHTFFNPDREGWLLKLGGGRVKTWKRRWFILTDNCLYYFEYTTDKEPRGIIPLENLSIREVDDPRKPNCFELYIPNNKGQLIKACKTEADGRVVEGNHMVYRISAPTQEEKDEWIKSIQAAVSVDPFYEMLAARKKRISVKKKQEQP

The assay concerns the target GST-coiled-coil (fusion of GST to the cytohesin 2 coiled-coil domain) (UniProt Q99418). In words: pull-down; GST or GST-coiled-coil on glutathione beads, incubated with cleared lysate of MDCK cells infected with adenoviruses at 4°C; lysis and wash buffer 50 mM Tris pH 7.5, 100 mM NaCl, 2 mM MgCl2, 1% NP-40, 10% glycerol; bound proteins detected by anti-myc, anti-HA and anti-GFP Western blots; only the target purified. A general note: Immunoblotting shows a protein as a band on a membrane.

These are yes or no findings as the source states them, for the method shown. Binding seen in cells or lysates may run through a third protein. A result given as binding can be weak or reduced; the word gives no strength.

B1: GRASP (protein, UniProt Q7Z6J2 1-395)
chain: MTLRRLRKLQQKEEAAATPDPAARTPDSEVAPAAPVPTPGPPAAAATPGPPADELYAALEDYHPAELYRALAVSGGTLPRRKGSGFRWKNLSQSPEQQRKVLTLEKEDNQTFGFEIQTYGLHHREEQRVEMVTFVCRVHESSPAQLAGLTPGDTIASVNGLNVEGIRHREIVDIIKASGNVLRLETLYGTSIRKAELEARLQYLKQTLYEKWGEYRSLMVQEQRLVHGLVVKDPSIYDTLESVRSCLYGAGLLPGSLPFGPLLAVPGRPRGGARRARGDADDAVYHTCFFGDSEPPALPPPPPPARAFGPGPAETPAVGPGPGPRAALSRSASVRCAGPGGGGGGGAPGALWTEAREQALCGPGLRKTKYRSFRRRLLKFIPGLNRSLEEEESQL
For the molecule B1, the binding entry is listed as “binds”.

B2: CNK3/IPCEF (protein, UniProt Q8WWN9 1-437)
chain: MTSYMAIDGSALVPLRQKPRRKTQGFLTMSRRRISCKDLGHADCQGWLYKKKEKGSFLSNKWKKFWVILKGSSLYWYSNQMAEKADGFVNLPDFTVERASECKKKHAFKISHPQIKTFYFAAENVQEMNVWLNKLGSAVIHQESTTKDEECYSESEQEDPEIAAETPPPPHASQTQSLTAQQASSSSPSLSGTSYSFSSLENTVKTPSSFPSSLSKERQSLPDTVNSLSAAEDEGQPITFAVQVHSPVPSEAGIHKALENSFVTSESGFLNSLSSDDTSSLSSNHDHLTVPDKPAGSKIMDKEETKVSEDDEMEKLYKSLEQASLSPLGDRRPSTKKELRKSFVKRCKNPSINEKLHKIRTLNSTLKCKEHDLAMINQLLDDPKLTARKYREWKVMNTLLIQDIYQQQRASPAPDDTDDTPQELKKSPSSPSVENSI
As to B2, the binding entry is recorded as “binds”.
